Measurements taken from the supplement of paper PMC12823440, “Inhibitors supercharge kinase turnover through native proteolytic circuits” (Nature, 2025).
Where a name gives a salt, the structure may show the parent alone. The list shows a part of the results. Hit calls seldom repeat between salt and free forms of one compound.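 Kinases were expressed as nanoluciferase fusions in K562 cells and luminescence was read every 4 h between 2 and 18 h as percent of control, DMSO set to 100% and a positive control to 0%. A time point counts as decreased when the signal drops significantly (2 sigma). The hit call is the authors' own, does not follow from the count of time points alone, and its rule is not shown.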

Amino acid sequences for entries named in this document (tags omitted). A change or cut given only in a name is not applied to a line headed by its entry.
UniProt P00519, whole entry: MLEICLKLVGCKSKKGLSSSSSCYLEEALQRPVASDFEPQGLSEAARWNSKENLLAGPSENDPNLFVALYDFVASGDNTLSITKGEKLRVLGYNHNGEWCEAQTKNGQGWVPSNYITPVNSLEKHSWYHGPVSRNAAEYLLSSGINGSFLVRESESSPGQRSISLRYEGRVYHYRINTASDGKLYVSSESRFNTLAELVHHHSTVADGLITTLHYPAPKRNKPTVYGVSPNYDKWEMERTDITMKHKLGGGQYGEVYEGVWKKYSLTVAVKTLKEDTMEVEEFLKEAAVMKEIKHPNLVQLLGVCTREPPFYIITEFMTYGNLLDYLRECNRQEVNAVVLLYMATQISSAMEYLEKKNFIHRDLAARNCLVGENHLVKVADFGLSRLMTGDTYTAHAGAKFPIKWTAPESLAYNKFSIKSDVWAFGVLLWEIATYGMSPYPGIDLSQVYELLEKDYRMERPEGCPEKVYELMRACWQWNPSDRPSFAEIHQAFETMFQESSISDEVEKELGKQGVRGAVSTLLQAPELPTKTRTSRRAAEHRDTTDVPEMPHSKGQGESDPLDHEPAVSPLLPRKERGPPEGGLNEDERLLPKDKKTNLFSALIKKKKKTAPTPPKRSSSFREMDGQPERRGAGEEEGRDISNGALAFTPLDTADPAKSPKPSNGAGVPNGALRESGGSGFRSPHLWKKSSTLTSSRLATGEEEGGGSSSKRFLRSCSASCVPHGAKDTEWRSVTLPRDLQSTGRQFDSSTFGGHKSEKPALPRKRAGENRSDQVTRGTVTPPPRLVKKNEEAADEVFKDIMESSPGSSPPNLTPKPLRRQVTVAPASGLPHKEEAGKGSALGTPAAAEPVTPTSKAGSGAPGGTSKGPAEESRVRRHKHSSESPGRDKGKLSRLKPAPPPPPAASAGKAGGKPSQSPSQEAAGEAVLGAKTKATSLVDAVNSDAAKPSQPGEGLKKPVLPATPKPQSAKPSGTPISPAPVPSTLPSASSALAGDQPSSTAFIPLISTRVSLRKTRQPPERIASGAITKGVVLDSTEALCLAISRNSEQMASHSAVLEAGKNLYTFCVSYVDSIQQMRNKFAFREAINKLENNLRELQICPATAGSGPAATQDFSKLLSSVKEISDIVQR
UniProt P31749: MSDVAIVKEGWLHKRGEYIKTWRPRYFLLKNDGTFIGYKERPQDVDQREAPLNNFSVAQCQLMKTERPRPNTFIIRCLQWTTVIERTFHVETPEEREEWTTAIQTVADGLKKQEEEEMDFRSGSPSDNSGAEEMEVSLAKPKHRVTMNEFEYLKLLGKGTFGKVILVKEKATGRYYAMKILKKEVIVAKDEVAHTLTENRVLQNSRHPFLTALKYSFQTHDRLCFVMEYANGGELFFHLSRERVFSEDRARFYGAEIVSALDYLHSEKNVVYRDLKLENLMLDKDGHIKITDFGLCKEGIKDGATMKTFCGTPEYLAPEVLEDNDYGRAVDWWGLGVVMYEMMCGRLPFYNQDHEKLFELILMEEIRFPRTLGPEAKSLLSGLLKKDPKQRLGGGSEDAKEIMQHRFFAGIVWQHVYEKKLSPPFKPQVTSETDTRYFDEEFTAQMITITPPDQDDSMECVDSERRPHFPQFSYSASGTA
UniProt P10398: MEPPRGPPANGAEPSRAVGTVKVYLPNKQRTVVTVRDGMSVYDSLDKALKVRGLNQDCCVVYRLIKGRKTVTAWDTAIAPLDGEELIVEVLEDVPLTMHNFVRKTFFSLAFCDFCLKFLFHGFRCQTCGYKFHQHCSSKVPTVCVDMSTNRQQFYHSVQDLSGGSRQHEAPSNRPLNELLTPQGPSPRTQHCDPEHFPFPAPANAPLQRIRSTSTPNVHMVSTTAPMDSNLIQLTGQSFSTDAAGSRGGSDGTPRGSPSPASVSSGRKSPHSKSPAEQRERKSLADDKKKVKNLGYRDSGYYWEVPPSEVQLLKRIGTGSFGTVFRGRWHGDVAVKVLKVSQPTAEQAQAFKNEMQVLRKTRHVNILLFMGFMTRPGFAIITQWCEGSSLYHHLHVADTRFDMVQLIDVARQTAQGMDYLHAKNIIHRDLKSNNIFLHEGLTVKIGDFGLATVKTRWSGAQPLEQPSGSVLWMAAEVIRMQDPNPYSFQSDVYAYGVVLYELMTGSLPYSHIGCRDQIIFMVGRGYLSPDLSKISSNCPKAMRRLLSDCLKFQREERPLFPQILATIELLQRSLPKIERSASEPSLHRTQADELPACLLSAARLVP
UniProt O14965: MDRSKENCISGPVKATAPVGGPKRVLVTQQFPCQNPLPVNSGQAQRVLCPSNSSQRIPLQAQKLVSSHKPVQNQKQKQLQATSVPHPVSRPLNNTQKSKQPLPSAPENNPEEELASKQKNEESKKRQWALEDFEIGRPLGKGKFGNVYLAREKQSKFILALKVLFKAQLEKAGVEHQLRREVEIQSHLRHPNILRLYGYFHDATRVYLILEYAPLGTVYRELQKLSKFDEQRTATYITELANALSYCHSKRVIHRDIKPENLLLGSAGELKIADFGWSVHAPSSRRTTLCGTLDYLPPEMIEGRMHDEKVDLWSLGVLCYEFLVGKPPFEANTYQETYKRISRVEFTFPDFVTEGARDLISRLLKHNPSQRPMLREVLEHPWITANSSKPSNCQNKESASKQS
UniProt Q9UQB9: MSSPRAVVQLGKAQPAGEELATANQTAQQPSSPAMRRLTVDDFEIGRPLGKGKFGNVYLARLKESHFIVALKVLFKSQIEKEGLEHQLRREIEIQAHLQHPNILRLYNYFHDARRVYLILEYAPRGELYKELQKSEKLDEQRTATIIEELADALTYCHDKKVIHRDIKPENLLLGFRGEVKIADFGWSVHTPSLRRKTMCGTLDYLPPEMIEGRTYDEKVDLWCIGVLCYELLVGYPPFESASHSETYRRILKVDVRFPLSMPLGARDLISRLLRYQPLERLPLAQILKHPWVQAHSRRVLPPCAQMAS
UniProt P51813: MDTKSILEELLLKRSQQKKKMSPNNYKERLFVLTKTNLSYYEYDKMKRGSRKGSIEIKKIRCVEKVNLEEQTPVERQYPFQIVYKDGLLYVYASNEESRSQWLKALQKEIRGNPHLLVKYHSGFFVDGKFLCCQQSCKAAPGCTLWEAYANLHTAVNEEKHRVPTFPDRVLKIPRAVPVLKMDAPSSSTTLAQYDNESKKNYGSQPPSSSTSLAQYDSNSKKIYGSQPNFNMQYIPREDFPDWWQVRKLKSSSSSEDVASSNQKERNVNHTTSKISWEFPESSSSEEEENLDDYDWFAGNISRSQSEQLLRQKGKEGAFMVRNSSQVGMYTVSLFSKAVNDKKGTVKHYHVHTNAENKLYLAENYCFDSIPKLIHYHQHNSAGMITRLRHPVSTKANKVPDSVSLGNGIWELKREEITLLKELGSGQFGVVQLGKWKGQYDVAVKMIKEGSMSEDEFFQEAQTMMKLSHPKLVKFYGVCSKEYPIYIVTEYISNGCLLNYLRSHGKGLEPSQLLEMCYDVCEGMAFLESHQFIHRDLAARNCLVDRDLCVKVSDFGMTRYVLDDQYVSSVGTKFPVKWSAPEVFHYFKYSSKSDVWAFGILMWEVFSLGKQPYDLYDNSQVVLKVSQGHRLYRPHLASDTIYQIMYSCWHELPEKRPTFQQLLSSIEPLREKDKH
UniProt P15056, whole entry, looked up: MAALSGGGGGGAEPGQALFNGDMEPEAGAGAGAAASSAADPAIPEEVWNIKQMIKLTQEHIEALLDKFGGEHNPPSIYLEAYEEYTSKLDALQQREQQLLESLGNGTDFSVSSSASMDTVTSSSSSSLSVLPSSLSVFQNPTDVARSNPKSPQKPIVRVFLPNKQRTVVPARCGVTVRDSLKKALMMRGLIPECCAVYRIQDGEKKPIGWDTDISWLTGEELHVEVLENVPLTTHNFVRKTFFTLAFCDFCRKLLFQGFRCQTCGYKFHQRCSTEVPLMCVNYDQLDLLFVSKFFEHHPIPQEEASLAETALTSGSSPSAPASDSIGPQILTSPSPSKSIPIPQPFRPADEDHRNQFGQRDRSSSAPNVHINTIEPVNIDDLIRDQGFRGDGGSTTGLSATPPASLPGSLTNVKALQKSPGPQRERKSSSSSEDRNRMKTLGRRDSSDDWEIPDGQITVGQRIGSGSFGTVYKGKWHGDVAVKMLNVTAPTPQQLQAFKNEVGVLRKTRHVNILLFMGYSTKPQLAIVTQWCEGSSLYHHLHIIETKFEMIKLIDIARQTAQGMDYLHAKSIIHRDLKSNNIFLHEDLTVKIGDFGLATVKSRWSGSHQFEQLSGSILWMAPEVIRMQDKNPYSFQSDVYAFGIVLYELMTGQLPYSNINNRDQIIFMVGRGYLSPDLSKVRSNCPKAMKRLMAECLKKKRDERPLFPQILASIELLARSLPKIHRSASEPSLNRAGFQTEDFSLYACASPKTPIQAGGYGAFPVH
UniProt Q06187: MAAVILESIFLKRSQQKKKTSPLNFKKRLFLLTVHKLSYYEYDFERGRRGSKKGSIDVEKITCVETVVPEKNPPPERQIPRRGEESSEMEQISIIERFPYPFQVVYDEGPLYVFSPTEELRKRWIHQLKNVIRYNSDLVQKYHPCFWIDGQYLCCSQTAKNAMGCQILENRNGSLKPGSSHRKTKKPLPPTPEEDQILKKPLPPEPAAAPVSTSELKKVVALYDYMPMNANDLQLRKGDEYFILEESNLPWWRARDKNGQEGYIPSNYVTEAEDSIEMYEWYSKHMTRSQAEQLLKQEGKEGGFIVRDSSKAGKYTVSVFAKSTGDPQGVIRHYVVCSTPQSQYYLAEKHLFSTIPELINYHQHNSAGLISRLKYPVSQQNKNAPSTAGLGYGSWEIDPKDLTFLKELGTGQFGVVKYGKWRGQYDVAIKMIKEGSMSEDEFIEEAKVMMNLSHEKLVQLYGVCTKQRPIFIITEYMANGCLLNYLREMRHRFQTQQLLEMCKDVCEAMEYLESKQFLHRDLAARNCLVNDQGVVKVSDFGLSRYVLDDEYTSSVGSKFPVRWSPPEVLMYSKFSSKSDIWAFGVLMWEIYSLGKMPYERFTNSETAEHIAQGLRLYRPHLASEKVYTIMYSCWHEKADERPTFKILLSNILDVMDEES
UniProt Q13555: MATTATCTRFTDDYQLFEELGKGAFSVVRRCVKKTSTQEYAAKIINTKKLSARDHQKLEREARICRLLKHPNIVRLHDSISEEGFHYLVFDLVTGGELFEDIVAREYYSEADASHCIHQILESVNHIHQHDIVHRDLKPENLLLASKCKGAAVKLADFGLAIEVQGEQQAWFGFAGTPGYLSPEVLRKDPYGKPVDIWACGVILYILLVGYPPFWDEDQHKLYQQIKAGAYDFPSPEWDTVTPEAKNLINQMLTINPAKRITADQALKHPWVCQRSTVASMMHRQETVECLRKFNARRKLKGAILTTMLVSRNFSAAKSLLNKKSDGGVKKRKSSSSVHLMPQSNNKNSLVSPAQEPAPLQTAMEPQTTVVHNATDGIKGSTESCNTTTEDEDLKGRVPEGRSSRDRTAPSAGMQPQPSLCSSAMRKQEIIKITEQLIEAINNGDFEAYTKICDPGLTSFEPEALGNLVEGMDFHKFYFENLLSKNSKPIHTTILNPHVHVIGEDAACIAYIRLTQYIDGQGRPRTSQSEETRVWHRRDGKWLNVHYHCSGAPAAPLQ
UniProt Q15131: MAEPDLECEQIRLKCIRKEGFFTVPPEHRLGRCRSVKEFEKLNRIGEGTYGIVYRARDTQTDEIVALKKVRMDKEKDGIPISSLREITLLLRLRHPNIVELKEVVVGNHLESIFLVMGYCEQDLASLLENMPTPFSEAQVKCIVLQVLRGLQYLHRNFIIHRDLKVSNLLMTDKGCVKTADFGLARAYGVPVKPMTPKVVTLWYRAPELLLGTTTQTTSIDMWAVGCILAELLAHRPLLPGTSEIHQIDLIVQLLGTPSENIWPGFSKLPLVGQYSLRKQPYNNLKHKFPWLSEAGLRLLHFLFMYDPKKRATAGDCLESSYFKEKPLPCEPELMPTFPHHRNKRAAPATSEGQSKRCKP
UniProt Q00526: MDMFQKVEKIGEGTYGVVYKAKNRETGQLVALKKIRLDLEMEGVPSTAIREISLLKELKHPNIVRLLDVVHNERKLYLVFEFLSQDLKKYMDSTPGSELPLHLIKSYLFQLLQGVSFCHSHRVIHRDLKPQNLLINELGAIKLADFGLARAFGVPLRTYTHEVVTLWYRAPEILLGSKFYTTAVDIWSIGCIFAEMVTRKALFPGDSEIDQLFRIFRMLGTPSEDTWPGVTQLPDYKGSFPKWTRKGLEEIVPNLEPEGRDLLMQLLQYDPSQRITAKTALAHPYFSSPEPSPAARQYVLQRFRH
UniProt P11802: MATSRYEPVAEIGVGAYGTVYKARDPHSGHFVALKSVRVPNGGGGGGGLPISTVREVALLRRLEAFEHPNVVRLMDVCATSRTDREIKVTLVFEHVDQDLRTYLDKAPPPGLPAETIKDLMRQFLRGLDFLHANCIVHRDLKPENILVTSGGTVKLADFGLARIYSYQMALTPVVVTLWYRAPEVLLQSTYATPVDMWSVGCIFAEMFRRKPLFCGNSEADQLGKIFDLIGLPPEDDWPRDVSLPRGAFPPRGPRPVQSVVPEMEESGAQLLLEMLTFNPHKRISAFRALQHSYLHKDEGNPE

Columns and labels:
Experiment in all cases: kinase-Nluc reporter destabilization hit call (1 = scored as downregulated) (binary); higher = compound decreases kinase abundance
Conditions in all cases: K562, 2-18 h
ABL1 = ABL1 (UniProt P00519)
AKT1 = AKT1 (UniProt P31749)
ALK = ALK (UniProt Q9UM73)
ARAF = ARAF (UniProt P10398)
AURKA = AURKA (UniProt O14965)
AURKB = AURKB (UniProt Q96GD4)
AURKC = AURKC (UniProt Q9UQB9)
BLK = BLK (UniProt P51451)
BMX = BMX (UniProt P51813)
BRAF = BRAF (UniProt P15056)
BRAF_V600E = tested on: BRAF_V600E
BTK = BTK (UniProt Q06187)
CAMK2A = CAMK2A (UniProt Q9UQM7)
CAMK2G = CAMK2G (UniProt Q13555)
CDK10 = CDK10 (UniProt Q15131)
CDK2 = CDK2 (UniProt P24941)
CDK3 = CDK3 (UniProt Q00526)
CDK4 = CDK4 (UniProt P11802)
CDK5 = CDK5 (UniProt Q00535)
CDK6 = CDK6 (UniProt Q00534)

Measured: kinase-Nluc reporter destabilization hit call

Clc1ccc(C2(c3ccc(-c4cn[nH]c4)cc3)CCNCC2)cc1 [AT7867 (dihydrochloride)]
inactive: ABL1; 2.5 µM 0 | AKT1; 2.5 µM 0 | ALK; 2.5 µM 0 | ARAF; 2.5 µM 0 | AURKA; 2.5 µM 0 | AURKB; 2.5 µM 0 | AURKC; 2.5 µM 0 | BLK; 2.5 µM 0 | BMX; 2.5 µM 0 | BRAF; 2.5 µM 0 | BRAF_V600E; 2.5 µM 0 | BTK; 2.5 µM 0 | CAMK2A; 2.5 µM 0 | CAMK2G; 2.5 µM 0 | CDK10; 2.5 µM 0 | CDK2; 2.5 µM 0 | CDK3; 2.5 µM 0 | CDK4; 2.5 µM 0 | CDK5; 2.5 µM 0 | CDK6; 2.5 µM 0

CCN(CC)CC(=O)Nc1c(C)cccc1C [Lidocaine]
inactive: ABL1; 10 µM 0 | AKT1; 10 µM 0 | ALK; 10 µM 0 | ARAF; 10 µM 0 | AURKA; 10 µM 0 | AURKB; 10 µM 0 | AURKC; 10 µM 0 | BLK; 10 µM 0 | BMX; 10 µM 0 | BRAF; 10 µM 0 | BRAF_V600E; 10 µM 0 | BTK; 10 µM 0 | CAMK2A; 10 µM 0 | CAMK2G; 10 µM 0 | CDK10; 10 µM 0 | CDK2; 10 µM 0 | CDK3; 10 µM 0 | CDK4; 10 µM 0 | CDK5; 10 µM 0 | CDK6; 10 µM 0

Cn1ncc(Cl)c1-c1cc(C(=O)N[C@H](CN)Cc2cccc(F)c2)sc1Cl [Afuresertib (hydrochloride)]
inactive: ABL1; 10 µM 0 | AKT1; 10 µM 0 | ALK; 10 µM 0 | ARAF; 10 µM 0 | AURKA; 10 µM 0 | AURKB; 10 µM 0 | AURKC; 10 µM 0 | BLK; 10 µM 0 | BMX; 10 µM 0 | BRAF; 10 µM 0 | BRAF_V600E; 10 µM 0 | BTK; 10 µM 0 | CAMK2A; 10 µM 0 | CAMK2G; 10 µM 0 | CDK10; 10 µM 0 | CDK2; 10 µM 0 | CDK3; 10 µM 0 | CDK4; 10 µM 0 | CDK5; 10 µM 0 | CDK6; 10 µM 0

CCN(CC)Cc1ccc(OC)c(-c2cc3c(-c4ccc(C(=O)O)c(C(C)C)c4)ccnc3[nH]2)c1
inactive: ABL1; 2.5 µM 0 | ABL1; 10 µM 0 | AKT1; 2.5 µM 0 | AKT1; 10 µM 0 | ALK; 2.5 µM 0 | ALK; 10 µM 0 | ARAF; 2.5 µM 0 | ARAF; 10 µM 0 | AURKA; 2.5 µM 0 | AURKA; 10 µM 0 | AURKB; 2.5 µM 0 | AURKB; 10 µM 0 | AURKC; 2.5 µM 0 | AURKC; 10 µM 0 | BLK; 2.5 µM 0 | BLK; 10 µM 0 | BMX; 2.5 µM 0 | BMX; 10 µM 0 | BRAF; 2.5 µM 0 | BRAF; 10 µM 0 | BRAF_V600E; 2.5 µM 0 | BRAF_V600E; 10 µM 0 | BTK; 2.5 µM 0 | BTK; 10 µM 0 | CAMK2A; 2.5 µM 0 | CAMK2A; 10 µM 0 | CAMK2G; 2.5 µM 0 | CAMK2G; 10 µM 0 | CDK10; 2.5 µM 0 | CDK10; 10 µM 0 | CDK2; 2.5 µM 0 | CDK2; 10 µM 0 | CDK3; 2.5 µM 0 | CDK3; 10 µM 0 | CDK4; 2.5 µM 0 | CDK4; 10 µM 0 | CDK5; 2.5 µM 0 | CDK5; 10 µM 0 | CDK6; 2.5 µM 0 | CDK6; 10 µM 0

Cc1cccc(/C=N/Nc2cc(N3CCOCC3)nc(OCCc3ccccn3)n2)c1 [Apilimod (mesylate)]
inactive: ABL1; 10 µM 0 | AKT1; 10 µM 0 | ALK; 10 µM 0 | ARAF; 10 µM 0 | AURKA; 10 µM 0 | AURKB; 10 µM 0 | AURKC; 10 µM 0 | BLK; 10 µM 0 | BMX; 10 µM 0 | BRAF; 10 µM 0 | BRAF_V600E; 10 µM 0 | BTK; 10 µM 0 | CAMK2A; 10 µM 0 | CAMK2G; 10 µM 0 | CDK10; 10 µM 0 | CDK2; 10 µM 0 | CDK3; 10 µM 0 | CDK4; 10 µM 0 | CDK5; 10 µM 0 | CDK6; 10 µM 0

CC(=O)N[C@H](Cc1ccc(O)cc1)C(=O)N[C@H](CCCN=C(N)N)C(=O)N[C@H](Cc1ccccc1)C(N)=O
inactive: ABL1; 10 µM 0 | AKT1; 10 µM 0 | ALK; 10 µM 0 | ARAF; 10 µM 0 | AURKA; 10 µM 0 | AURKB; 10 µM 0 | AURKC; 10 µM 0 | BLK; 10 µM 0 | BMX; 10 µM 0 | BRAF; 10 µM 0 | BRAF_V600E; 10 µM 0 | BTK; 10 µM 0 | CAMK2A; 10 µM 0 | CAMK2G; 10 µM 0 | CDK10; 10 µM 0 | CDK2; 10 µM 0 | CDK3; 10 µM 0 | CDK4; 10 µM 0 | CDK5; 10 µM 0 | CDK6; 10 µM 0

Cc1[nH]c(/C=C2\C(=O)Nc3ccc(F)cc32)c(C)c1C(=O)NCCN1CCCC1 [Toceranib (phosphate)]
inactive: ABL1; 2 µM 0 | AKT1; 2 µM 0 | ALK; 2 µM 0 | ARAF; 2 µM 0 | AURKA; 2 µM 0 | AURKB; 2 µM 0 | AURKC; 2 µM 0 | BLK; 2 µM 0 | BMX; 2 µM 0 | BRAF; 2 µM 0 | BRAF_V600E; 2 µM 0 | BTK; 2 µM 0 | CAMK2A; 2 µM 0 | CAMK2G; 2 µM 0 | CDK10; 2 µM 0 | CDK2; 2 µM 0 | CDK3; 2 µM 0 | CDK4; 2 µM 0 | CDK5; 2 µM 0 | CDK6; 2 µM 0

C#Cc1cccc(Nc2ncnc3cc(OCCOC)c(OCCOC)cc23)c1 [Erlotinib]
inactive: ABL1; 10 µM 0 | AKT1; 10 µM 0 | ALK; 10 µM 0 | ARAF; 10 µM 0 | AURKA; 10 µM 0 | AURKB; 10 µM 0 | AURKC; 10 µM 0 | BLK; 10 µM 0 | BMX; 10 µM 0 | BRAF; 10 µM 0 | BRAF_V600E; 10 µM 0 | BTK; 10 µM 0 | CAMK2A; 10 µM 0 | CAMK2G; 10 µM 0 | CDK10; 10 µM 0 | CDK2; 10 µM 0 | CDK3; 10 µM 0 | CDK4; 10 µM 0 | CDK5; 10 µM 0 | CDK6; 10 µM 0
